PubChem BioAssay AID1259308, NCATS, 2017
The whole screen tested about 59,000 reagents; shown is an unselected part. About 1,510 of them (2.6%) count as active. 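Calls use total luciferase alone and ignore viability, so some active siRNAs may act by altering cell number.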 The numbers tell different reagents against one gene apart. Not all columns of the deposit are shown.

- Test: 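Candidate targets for better recombinant protein yield in mammalian cells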 (primary screen)
- Cell system: human HEK293 embryonic kidney cells stably expressing firefly luciferase (HEK-CMV-Luc2-Hygro)
- Reagents: single siRNA against human genes, 0.8 pmol siRNA per well
- Time to read-out: 72 h
- Measured: 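Luciferase light (ONE-Glo) measured on one replicate plate set and viability (CellTiter-Glo) on the other, scaled to a negative control siRNA, with robust z-scores and luciferase per cell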
- Direction: total luciferase, z-score: higher = more reporter protein produced
- Call rule: 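An siRNA counts as active if its total luciferase robust z-score exceeds 3; genes with two or more such siRNAs out of three were retested with fresh siRNAs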
- Calls: active = raised luciferase; inactive = no rise

TSPAN33 (tetraspanin 33) #1 showed total luciferase, z-score 1.11; inactive.
Silencing of TSPAN33 (tetraspanin 33) #2 came out at: total luciferase, z-score -1.4; inactive.
TSPAN33 (tetraspanin 33) #3 scored total luciferase, z-score -1.78; inactive.
Against RPS9 (ribosomal protein S9) #1, the entry reads total luciferase, z-score -3.05; inactive.
For RPS9 (ribosomal protein S9) #2 the deposit lists total luciferase, z-score -2.52; inactive.
After knock-down of RPS9 (ribosomal protein S9) #3, the screen gave total luciferase, z-score -2.26; inactive.
Against PAN2 (poly(A) specific ribonuclease subunit PAN2) #1 the deposit lists total luciferase, z-score -1.2; inactive.
After knock-down of PAN2 (poly(A) specific ribonuclease subunit PAN2) #2, the screen gave total luciferase, z-score -0.23; inactive.
PAN2 (poly(A) specific ribonuclease subunit PAN2) #3 showed total luciferase, z-score -1.18; inactive.
Silencing of OR4S2 (olfactory receptor family 4 subfamily S member 2) #1 gave: total luciferase, z-score -0.429; inactive.
For OR4S2 (olfactory receptor family 4 subfamily S member 2) #2 the deposit lists total luciferase, z-score 0.0293; inactive.
After knock-down of OR4S2 (olfactory receptor family 4 subfamily S member 2) #3, the screen gave total luciferase, z-score 1.85; inactive.

Ordered by “total luciferase, z-score” (lowest first): some entries from above.
RPS9 (ribosomal protein S9) #2 | total luciferase, z-score: -2.52; outcome: inactive
RPS9 (ribosomal protein S9) #3 | total luciferase, z-score: -2.26; outcome: inactive
PAN2 (poly(A) specific ribonuclease subunit PAN2) #1 | total luciferase, z-score: -1.2; outcome: inactive
PAN2 (poly(A) specific ribonuclease subunit PAN2) #3 | total luciferase, z-score: -1.18; outcome: inactive
OR4S2 (olfactory receptor family 4 subfamily S member 2) #1 | total luciferase, z-score: -0.429; outcome: inactive
PAN2 (poly(A) specific ribonuclease subunit PAN2) #2 | total luciferase, z-score: -0.23; outcome: inactive

The listing continues:
COA1 (cytochrome c oxidase assembly factor 1) #1 showed total luciferase, z-score -0.246; inactive.
Depletion of COA1 (cytochrome c oxidase assembly factor 1) #2 came out at: total luciferase, z-score 0.592; inactive.
COA1 (cytochrome c oxidase assembly factor 1) #3 scored total luciferase, z-score 1.15; inactive.
For DOCK3 (dedicator of cytokinesis 3) #1, the values are total luciferase, z-score 0.00967; inactive.
For DOCK3 (dedicator of cytokinesis 3) #2, the values are total luciferase, z-score -0.415; inactive.
DOCK3 (dedicator of cytokinesis 3) #3 showed total luciferase, z-score -0.588; inactive.
TMEM250 (transmembrane protein 250) #1 gave total luciferase, z-score -0.724; inactive.
Against TMEM250 (transmembrane protein 250) #2 the deposit lists total luciferase, z-score 3.36; active.
With knock-down of TMEM250 (transmembrane protein 250) #3, the screen gave total luciferase, z-score 0.117; inactive.
CCN6 (cellular communication network factor 6) #1 showed total luciferase, z-score -0.447; inactive.
Silencing of CCN6 (cellular communication network factor 6) #2 came out at: total luciferase, z-score 1.1; inactive.
Knock-down of CCN6 (cellular communication network factor 6) #3 came out at: total luciferase, z-score 4.61; active.
With knock-down of PHF10 (PHD finger protein 10) #1, the record shows total luciferase, z-score -1.55; inactive.
For PHF10 (PHD finger protein 10) #2, the entry reads total luciferase, z-score 0.962; inactive.
PHF10 (PHD finger protein 10) #3 showed total luciferase, z-score 0.0163; inactive.
For FIBIN (fin bud initiation factor homolog) #1 the deposit lists total luciferase, z-score -1.29; inactive.
FIBIN (fin bud initiation factor homolog) #2 showed total luciferase, z-score -2.2; inactive.
FIBIN (fin bud initiation factor homolog) #3 scored total luciferase, z-score -1.74; inactive.
After knock-down of UEVLD (UEV and lactate/malate dehyrogenase domains) #1 the results were total luciferase, z-score 0.234; inactive.
Against UEVLD (UEV and lactate/malate dehyrogenase domains) #2, the entry reads total luciferase, z-score -2; inactive.
Silencing of UEVLD (UEV and lactate/malate dehyrogenase domains) #3 resulted in: total luciferase, z-score 0.541; inactive.
